The supplement of paper PMC10849652
This is one part of the list.

The chains behind the UniProt entries cited, without tags or fusion partners. Where a name states a change or a piece, a line headed by the entry shows the natural chain unless it says otherwise.
UniProt O75718: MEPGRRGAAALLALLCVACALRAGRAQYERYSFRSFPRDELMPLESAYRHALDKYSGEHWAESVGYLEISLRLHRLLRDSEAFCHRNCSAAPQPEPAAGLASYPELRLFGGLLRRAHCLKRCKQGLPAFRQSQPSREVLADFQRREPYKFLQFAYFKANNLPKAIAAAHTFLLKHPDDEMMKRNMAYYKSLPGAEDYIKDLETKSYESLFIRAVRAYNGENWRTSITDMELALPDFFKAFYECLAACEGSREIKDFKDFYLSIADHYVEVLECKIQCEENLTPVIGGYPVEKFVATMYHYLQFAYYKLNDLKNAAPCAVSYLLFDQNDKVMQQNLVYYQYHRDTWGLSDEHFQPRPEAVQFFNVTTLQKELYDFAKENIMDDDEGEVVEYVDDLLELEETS
UniProt P0DMU9: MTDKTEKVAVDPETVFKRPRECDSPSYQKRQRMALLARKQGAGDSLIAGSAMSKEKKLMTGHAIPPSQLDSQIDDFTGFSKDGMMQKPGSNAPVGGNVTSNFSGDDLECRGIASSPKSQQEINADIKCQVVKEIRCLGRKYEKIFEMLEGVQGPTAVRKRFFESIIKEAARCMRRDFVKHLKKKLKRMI
UniProt P35221: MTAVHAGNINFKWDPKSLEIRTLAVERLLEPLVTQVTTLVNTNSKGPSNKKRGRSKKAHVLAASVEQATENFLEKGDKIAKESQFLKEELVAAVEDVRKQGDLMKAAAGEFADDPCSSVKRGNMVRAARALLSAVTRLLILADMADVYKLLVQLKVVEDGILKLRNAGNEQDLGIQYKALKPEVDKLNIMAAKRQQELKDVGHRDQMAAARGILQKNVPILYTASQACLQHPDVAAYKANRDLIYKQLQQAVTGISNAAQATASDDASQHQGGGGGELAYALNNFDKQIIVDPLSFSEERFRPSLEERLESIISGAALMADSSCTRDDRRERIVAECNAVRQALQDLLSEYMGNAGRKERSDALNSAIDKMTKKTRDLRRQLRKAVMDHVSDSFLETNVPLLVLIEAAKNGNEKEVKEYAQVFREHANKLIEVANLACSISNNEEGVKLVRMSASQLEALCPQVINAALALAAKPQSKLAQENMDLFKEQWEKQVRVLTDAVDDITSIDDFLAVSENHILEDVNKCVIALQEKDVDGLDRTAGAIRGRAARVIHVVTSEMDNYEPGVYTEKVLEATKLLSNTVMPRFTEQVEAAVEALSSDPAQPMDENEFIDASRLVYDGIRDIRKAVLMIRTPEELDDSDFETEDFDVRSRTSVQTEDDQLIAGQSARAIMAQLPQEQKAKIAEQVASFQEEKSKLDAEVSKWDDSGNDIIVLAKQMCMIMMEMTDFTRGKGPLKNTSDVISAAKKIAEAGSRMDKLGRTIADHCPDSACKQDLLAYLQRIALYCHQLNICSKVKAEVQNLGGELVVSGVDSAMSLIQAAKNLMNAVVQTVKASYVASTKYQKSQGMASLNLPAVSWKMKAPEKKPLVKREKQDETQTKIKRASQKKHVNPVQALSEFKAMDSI
UniProt Q5JQC4: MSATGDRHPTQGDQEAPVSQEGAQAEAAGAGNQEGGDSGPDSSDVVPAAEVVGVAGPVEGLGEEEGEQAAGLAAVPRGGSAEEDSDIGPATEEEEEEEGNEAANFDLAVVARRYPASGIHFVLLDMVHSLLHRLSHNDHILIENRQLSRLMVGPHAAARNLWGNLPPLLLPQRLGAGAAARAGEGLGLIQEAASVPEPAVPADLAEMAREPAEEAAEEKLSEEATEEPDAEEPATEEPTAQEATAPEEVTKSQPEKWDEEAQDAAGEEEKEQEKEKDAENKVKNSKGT
UniProt P55060: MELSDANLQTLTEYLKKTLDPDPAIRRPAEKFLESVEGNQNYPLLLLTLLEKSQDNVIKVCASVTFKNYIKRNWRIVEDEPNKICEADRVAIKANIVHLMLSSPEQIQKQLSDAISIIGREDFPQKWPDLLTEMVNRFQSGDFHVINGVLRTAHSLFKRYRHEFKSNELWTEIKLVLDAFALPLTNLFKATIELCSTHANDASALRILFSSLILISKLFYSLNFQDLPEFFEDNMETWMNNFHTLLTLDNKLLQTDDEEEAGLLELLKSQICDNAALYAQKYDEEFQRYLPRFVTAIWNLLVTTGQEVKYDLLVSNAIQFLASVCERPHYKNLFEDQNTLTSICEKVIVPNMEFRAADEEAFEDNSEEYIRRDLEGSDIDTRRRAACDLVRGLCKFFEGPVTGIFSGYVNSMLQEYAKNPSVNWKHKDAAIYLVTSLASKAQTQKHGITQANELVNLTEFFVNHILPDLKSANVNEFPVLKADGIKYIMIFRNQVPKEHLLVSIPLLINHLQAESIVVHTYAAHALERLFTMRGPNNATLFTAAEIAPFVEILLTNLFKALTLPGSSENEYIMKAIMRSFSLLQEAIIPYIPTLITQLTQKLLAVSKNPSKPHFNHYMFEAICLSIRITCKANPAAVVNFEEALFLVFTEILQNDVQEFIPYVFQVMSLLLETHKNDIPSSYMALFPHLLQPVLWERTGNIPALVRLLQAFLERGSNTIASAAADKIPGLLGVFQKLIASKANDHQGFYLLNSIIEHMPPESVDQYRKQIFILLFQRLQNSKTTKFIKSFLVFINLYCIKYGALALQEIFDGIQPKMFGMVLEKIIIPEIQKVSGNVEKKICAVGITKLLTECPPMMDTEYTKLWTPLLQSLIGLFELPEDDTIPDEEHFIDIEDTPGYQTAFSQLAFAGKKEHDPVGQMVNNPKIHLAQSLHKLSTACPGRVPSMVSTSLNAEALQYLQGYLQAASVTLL
UniProt Q6UUV9: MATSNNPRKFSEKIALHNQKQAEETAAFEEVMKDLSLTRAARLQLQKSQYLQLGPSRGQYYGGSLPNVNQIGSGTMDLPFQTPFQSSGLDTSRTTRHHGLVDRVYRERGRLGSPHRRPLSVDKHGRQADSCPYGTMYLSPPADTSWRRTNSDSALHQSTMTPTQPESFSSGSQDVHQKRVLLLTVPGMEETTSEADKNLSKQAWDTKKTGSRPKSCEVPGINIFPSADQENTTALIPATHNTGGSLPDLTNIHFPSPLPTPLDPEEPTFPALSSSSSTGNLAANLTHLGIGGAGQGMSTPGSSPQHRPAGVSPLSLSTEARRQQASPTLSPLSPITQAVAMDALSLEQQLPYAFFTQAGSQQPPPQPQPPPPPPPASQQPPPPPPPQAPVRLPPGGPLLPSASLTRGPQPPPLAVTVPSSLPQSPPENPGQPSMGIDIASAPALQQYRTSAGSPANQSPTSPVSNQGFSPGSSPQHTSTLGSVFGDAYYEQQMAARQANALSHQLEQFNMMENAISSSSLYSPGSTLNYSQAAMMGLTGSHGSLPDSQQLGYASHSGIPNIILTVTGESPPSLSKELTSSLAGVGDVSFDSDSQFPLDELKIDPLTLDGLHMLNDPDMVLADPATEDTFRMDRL
UniProt Q01459: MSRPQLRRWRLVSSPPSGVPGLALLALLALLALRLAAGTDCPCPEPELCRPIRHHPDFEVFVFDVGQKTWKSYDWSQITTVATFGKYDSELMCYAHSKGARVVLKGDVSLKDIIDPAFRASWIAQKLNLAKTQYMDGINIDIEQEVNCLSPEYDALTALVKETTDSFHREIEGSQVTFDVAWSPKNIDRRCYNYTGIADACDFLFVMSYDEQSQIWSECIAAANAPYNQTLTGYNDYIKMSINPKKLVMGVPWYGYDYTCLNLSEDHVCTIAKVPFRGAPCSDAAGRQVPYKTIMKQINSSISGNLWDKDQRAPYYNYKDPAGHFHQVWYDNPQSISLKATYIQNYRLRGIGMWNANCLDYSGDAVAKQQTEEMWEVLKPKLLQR
UniProt P00387: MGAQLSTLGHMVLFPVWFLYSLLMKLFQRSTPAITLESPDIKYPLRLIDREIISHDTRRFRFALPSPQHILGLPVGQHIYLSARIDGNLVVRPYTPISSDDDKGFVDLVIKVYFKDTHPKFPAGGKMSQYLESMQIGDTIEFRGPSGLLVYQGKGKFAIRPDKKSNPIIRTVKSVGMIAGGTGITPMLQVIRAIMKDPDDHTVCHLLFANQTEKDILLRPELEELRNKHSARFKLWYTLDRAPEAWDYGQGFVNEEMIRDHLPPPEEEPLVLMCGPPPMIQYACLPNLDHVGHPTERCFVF
UniProt Q8NBI2: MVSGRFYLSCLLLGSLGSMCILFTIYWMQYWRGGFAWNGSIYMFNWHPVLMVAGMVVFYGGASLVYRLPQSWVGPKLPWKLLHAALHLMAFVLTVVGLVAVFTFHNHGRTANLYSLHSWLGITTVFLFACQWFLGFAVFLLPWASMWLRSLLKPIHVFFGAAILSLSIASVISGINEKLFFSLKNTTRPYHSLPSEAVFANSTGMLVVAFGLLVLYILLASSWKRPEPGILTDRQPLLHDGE
UniProt Q93034, whole entry, looked up: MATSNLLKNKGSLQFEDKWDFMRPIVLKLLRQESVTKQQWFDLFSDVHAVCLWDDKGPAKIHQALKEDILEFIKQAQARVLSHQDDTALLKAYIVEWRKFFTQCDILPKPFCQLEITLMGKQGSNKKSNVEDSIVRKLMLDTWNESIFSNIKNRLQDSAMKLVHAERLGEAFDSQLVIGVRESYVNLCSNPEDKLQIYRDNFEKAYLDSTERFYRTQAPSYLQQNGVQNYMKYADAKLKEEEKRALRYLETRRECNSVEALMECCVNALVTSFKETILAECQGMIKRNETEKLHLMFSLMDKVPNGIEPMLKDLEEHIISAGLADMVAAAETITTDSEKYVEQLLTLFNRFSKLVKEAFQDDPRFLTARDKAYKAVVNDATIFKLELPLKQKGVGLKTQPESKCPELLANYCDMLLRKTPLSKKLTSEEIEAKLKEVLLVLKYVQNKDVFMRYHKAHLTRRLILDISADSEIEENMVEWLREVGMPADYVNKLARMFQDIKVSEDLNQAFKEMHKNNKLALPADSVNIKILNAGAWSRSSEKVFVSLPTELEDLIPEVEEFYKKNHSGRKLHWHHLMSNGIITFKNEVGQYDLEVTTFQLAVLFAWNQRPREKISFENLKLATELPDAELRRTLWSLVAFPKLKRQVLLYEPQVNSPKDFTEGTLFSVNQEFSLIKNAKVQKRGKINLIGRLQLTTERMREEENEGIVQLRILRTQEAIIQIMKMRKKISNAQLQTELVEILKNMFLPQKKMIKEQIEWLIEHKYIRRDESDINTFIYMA
UniProt O75629: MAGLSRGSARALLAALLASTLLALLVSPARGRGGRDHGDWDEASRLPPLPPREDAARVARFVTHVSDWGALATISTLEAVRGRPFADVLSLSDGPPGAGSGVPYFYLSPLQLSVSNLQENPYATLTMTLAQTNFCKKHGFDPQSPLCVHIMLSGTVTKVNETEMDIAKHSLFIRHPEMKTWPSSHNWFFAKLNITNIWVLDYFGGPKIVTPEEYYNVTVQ
UniProt Q9P0U4, whole entry, looked up: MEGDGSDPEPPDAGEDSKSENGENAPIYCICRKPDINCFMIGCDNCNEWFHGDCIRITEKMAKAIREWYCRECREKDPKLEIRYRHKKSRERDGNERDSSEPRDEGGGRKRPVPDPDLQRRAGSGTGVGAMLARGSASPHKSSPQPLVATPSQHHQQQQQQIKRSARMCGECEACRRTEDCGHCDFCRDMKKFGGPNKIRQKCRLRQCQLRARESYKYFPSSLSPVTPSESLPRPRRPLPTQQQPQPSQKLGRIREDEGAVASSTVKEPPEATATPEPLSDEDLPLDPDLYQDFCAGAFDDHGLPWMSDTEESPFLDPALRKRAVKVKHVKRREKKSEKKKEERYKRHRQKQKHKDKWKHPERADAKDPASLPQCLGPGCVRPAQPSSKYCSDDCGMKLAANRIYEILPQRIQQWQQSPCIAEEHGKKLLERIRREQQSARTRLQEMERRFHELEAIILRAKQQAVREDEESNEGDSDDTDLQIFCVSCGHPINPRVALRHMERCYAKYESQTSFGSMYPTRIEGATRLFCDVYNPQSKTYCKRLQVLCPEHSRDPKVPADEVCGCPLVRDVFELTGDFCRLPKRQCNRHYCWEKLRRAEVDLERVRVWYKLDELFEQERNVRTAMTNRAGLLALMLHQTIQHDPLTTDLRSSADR
UniProt P68400, whole entry, looked up: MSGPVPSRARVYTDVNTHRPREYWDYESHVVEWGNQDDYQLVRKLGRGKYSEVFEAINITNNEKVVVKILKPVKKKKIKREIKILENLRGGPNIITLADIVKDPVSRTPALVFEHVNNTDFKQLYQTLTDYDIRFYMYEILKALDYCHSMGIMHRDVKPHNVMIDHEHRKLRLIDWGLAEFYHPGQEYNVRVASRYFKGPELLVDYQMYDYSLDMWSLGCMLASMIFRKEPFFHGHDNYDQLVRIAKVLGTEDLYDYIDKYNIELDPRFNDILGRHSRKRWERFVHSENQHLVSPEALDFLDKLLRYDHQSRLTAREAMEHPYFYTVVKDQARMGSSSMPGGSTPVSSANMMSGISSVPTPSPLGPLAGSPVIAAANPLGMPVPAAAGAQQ
UniProt P50461: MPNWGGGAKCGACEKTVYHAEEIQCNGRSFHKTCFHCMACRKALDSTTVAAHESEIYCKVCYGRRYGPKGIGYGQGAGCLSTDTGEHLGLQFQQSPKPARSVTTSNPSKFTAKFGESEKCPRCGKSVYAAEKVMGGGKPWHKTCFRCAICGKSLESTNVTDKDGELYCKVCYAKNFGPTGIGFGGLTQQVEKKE

What follows are targets tested with CN1CCN(c2nc(C3=C(c4c[nH]c5ccccc45)C(=O)NC3=O)c3ccccc3n2)CC1 [sotrastaurin] (assay: log2 fold change, soluble protein after heating vs DMSO (PISA); higher = thermal stabilisation; K562 lysate, 10 uM; active = over 0.2 and 3.5 SD of the protein, either way, in both replicates (recomputed)).
Procedure, shortened: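 Values give the log-two fold change in thermal stability against solvent controls, from duplicates. Crude K562 extract at 1 mg/mL protein, made by dounce homogenisation in PBS pH 7.4 with 1 mM MgCl2, was treated with 10 μM compound for 30 min. After 3 min heating across 48°C-58°C, aliquots were pooled, adjusted to 0.5% NP-40 at 4°C and centrifuged at 21,000xg for 90 min. The supernatant was measured by TMTpro 16plex LC-MS/MS with channel sums equalised.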
In the case of CRTAP (UniProt O75718), the log2 fold change is reported as inactive: 0.018.
In the case of CRBN (UniProt Q96SW2), the log2 fold change is reported as inactive: 0.013.
For CT45A10 (UniProt P0DMU9), the log2 fold change was inactive: 0.04.
For CRLF3 (UniProt Q8IUI8), the log2 fold change was inactive: 0.
CTNNA1 (UniProt P35221) was tested, and the log2 fold change was inactive: -0.009.
With CYC1 (UniProt P08574) the log2 fold change was inactive: 0.
For CTNND1 isoform 3 (UniProt O60716), the log2 fold change was inactive: 0.024.
In the case of CUL2 isoform 2 (UniProt Q13617), the log2 fold change is reported as inactive: -0.008.
For CT47A1 (UniProt Q5JQC4), the log2 fold change was inactive: 0.028.
In the case of CUX1 isoform 3 (UniProt P39880), the log2 fold change is reported as inactive: 0.029.
With CSE1L (UniProt P55060) the log2 fold change was inactive: 0.012.
With CRTC1 (UniProt Q6UUV9) the log2 fold change was inactive: -0.073.
For CTBS (UniProt Q01459), the log2 fold change was inactive: 0.006.
In the case of CUL1 (UniProt Q13616), the log2 fold change is reported as inactive: -0.029.
In the case of CWF19L1 (UniProt Q69YN2), the log2 fold change is reported as inactive: -0.005.
With CYB5R3 isoform 3 (UniProt P00387) the log2 fold change was inactive: 0.032.
For CTTN (UniProt Q14247), the log2 fold change was inactive: 0.025.
In the case of CYB561A3 isoform 2 (UniProt Q8NBI2), the log2 fold change is reported as inactive: 0.013.
CUL5 (UniProt Q93034) was tested, and the log2 fold change was inactive: 0.015.
In the case of CROCC (UniProt Q5TZA2), the log2 fold change is reported as inactive: -0.058.
For CREG1 (UniProt O75629), the log2 fold change was inactive: -0.02.
CYB5R2 (UniProt Q6BCY4) was tested, and the log2 fold change was inactive: 0.02.
CXXC1 isoform 2 (UniProt Q9P0U4) was tested, and the log2 fold change was inactive: -0.04.
In the case of CSNK2A1 (UniProt P68400), the log2 fold change is reported as inactive: 0.019.
For CSRP3 (UniProt P50461), the log2 fold change was inactive: -0.266.
CUTC (UniProt Q9NTM9) was tested, and the log2 fold change was inactive: -0.017.
With CRNKL1 (UniProt Q9BZJ0) the log2 fold change was inactive: -0.078.
In the case of CREBBP (UniProt Q92793), the log2 fold change is reported as inactive: -0.001.
CYB5R4 (UniProt Q7L1T6) was tested, and the log2 fold change was inactive: 0.036.
CTPS1 (UniProt P17812) was tested, and the log2 fold change was inactive: 0.021.
For CRELD2 isoform 5 (UniProt Q6UXH1), the log2 fold change was inactive: 0.015.
CWF19L2 (UniProt Q2TBE0) was tested, and the log2 fold change was inactive: -0.014.
